These are yes or no findings as the source states them, for the method shown. Binding seen in cells or lysates may run through a third protein. Some entries that bind do so weakly or less than the wild type. Sequences can lack the tags named with a protein.

Experimental findings from article PMC6862315 are described below.

This assay addresses Spike Activator 1 (SPK1), BiFC fusions NYN1-SPK1 and CYN1-SPK1 (Phalaenopsis aphrodite). The experiment in a line: split reporter; BiFC with split YFP (residues 1-174 and 175-239) in orchid cells after ballistic bombardment; 24 h in the dark; confocal microscopy; NLS(VirD2)-mRFP as nuclear control.

B1: Spike Activator 1 (SPK1), BiFC fusions NYN1-SPK1 and CYN1-SPK1 (protein, UniProt A0A5Q0QTC1 1-304)
chain: MALEAVVFHDLLSCNVKDMYSPWDIAGLVDEDKTLPFYDEWKASCSSLTGQGFQEPPDLGGATAISATAQKENKAPATCSESNGRKKRRRTKGLTNQEEAENQRMTHIAVERNRRKQMNEYLAVLRSLMPASYAQRGDQASIVGGAINYVKELQQIVQFLEVRKQLKHRGDNRVQDLKPLASFFSFPQYSLTDTAAAAAGGVDTVPANPSAVADIEVTIVESHASLKILCRRRPKQLLKLVVGLQSLRLSTLHLNATSFGAMVLFTFSLKVEEDCQLATVDEIATAVHQIVVRIHEEEGFYTSS
With B1, the binding result was “binds”.
